Reference: PubChem BioAssay AID2551 (National Center for Advancing Translational Sciences (NCATS), 2010)
In all, about 310,000 compounds went through this assay and about 17,000 (5.5%) were called active. The inconclusive results got no clear call from the source; some entries with a clear call stand among them for comparison. Calls follow the shape of the dose curve; as a rule, active = well fitted inhibition curve with a large enough effect; inconclusive = small, poorly fitted or top-dose-only effect, or effect the other way; inactive = no such curve, though single readings can be large or run the other way. Potencies beside an inconclusive call are fits to weak or partial responses and may not hold up.

The chains behind the UniProt entries cited, without tags or fusion partners. Where a name states a change or a piece, a line headed by the entry shows the natural chain unless it says otherwise.
UniProt P51450: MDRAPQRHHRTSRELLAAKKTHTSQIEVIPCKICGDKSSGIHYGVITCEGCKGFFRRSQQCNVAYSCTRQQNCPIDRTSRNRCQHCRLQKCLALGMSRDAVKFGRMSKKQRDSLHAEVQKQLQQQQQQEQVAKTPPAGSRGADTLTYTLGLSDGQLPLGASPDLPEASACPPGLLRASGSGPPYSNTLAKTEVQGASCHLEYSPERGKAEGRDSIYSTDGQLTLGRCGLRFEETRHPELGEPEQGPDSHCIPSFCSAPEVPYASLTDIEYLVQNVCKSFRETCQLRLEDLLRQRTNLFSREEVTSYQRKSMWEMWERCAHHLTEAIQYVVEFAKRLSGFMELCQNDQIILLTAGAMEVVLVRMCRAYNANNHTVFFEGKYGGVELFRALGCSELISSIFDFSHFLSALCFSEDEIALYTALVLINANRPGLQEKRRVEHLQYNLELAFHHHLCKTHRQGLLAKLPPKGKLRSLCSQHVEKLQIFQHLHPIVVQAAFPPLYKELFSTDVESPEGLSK

Target: Nuclear receptor ROR-gamma (Mus musculus) (UniProt P51450)
Experiment: qHTS for inhibitors of ROR gamma transcriptional activity; also: nearly all actives have a fitted effect of over 60% in size
Conditions: Drosophila S2 Gal4-RORgamma UAS-luciferase reporter, 20 h; series mostly up to 53.6 µM
Summary of the method: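 Read-out: Photinus luciferase luminescence; inhibitors lower reporter signal. Insect Schneider cells with Gal4-ROR gamma fusion under metallothionein promoter, UAS reporter; 700 uM final copper sulfate induction, 20 hr, ambient temperature.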
Potency is read from the fitted curve at half-maximal effect.

Row | SMILES | Potency
1 | COc1ccc(-c2nc(CSCC(=O)N3CCN(c4cccc(C)c4)C(C)C3)c(C)o2)cc1OC (configuration not stated) | inactive
2 | COc1ccc(NC(=O)c2ccccn2)cc1S(=O)(=O)N1CCOCC1 | inactive
3 | CCOC(=O)c1oc2cc(OCC(N)=O)ccc2c(=O)c1-c1ccc(OC)c(OC)c1 | inconclusive: 3.98 µM [activator, full curve, poor fit]
4 | CCOC(=O)N1CCN(C(=O)Cn2nc(C)n3nc(-c4ccccc4)cc3c2=O)CC1 | inconclusive: 0.178 µM [inhibitor, full curve, poor fit]
5 | CC(NC(=O)C1CCCN1S(=O)(=O)c1cccc2cccnc12)c1ccccc1 (configuration not stated) | inactive
6 | COc1ccc(-c2ccc(-c3cc(=O)oc4cc(C)cc(C)c34)cc2)cc1 | inactive
7 | CCCn1nnnc1NCc1ccc(Cl)cc1Cl | inconclusive: 6.31 µM [inhibitor, single point]
8 | COc1ccc(/C=C/C(=O)NC(=S)NCCc2ccc(OC)c(OC)c2)cc1 | active: 2.82 µM
9 | COc1ccc(C(=O)/C=C2/C(=O)Nc3ccccc32)c(OC)c1 | inconclusive: 11.2 µM [inhibitor, single point]
10 | COc1ccc(CN(CC(=O)NC2CCCC2)C(=O)c2onc(C(N)=O)c2N)cc1 | inconclusive: 35.5 µM [inhibitor, single point]
11 | CC(=O)Oc1ccc(N(C(C)=O)S(=O)(=O)c2cccs2)c2ccccc12 | active: 20 µM
12 | CC(NC(=O)c1ccc([N+](=O)[O-])cc1[N+](=O)[O-])c1ccc(-c2ccccc2)cc1 (configuration not stated) | inconclusive: 17.8 µM [activator, partial curve]
13 | Cc1noc(C)c1-c1ccc2ncnc(NCc3ccc4[nH]ccc4c3)c2c1 | inconclusive: 3.16 µM [inhibitor, full curve, poor fit]
14 | CCc1ccc(/C(C)=N/Nc2cc(Cl)nc(C)n2)cc1 | inactive
15 | Cc1ccc(NC(=O)C2CCN(S(=O)(=O)c3cccs3)CC2)cc1 | inconclusive: 11.2 µM [activator, single point]
16 | COc1ccc(CN=C2NN=C(c3ccc(Cl)cc3)CS2)cc1 | inconclusive: 35.5 µM [inhibitor, single point]
17 | Cc1ccccc1-n1nnnc1Sc1nnnn1-c1ccccc1 | inconclusive: 35.5 µM [inhibitor, single point]
18 | COc1ccc(N(CC(=O)Nc2ccc(C)c(C)c2)C2=NC3CS(=O)(=O)CC3S2)cc1 (configuration not stated) | inconclusive: 25.1 µM [inhibitor, single point]
19 | COc1ccc(OC)c(S(=O)(=O)Nc2ccc(C)c(C)c2)c1 | inconclusive: 35.5 µM [inhibitor, single point]
20 | O=S(=O)(c1ccc(NC(=S)N/N=C/c2cccc(Oc3ccccc3)c2)cc1)N1CCOCC1 | active: 0.891 µM
21 | O=S(=O)(/C=C/c1ccccc1)Nc1ccc(F)cc1 | inconclusive: 28.2 µM [activator, single point]
22 | COc1ccc([C@@H]2[C@@H]3C(=O)N(C(C)(C)C)C(=O)[C@@H]3[C@]3(CC(C)C)C(=O)N(c4cccc(Br)c4)C(=O)N23)cc1 | inactive
23 | O=C(COC(=O)c1ccc2c(c1)OCCO2)NCCC1=CCCCC1 | inconclusive: 3.55 µM [activator, partial curve, poor fit]
24 | CCOc1ccc(-c2cc(CCCC(=O)NCc3cccnc3)no2)cc1 | inconclusive: 0.0891 µM [inhibitor, full curve]

Row | SMILES | Potency
25 | Cc1ccc(C(=O)N/N=C\c2ccc3c(c2)OCO3)cn1 | inactive
26 | O=C(NC(=S)Nc1ccc(Br)cc1)C1CCCCC1 | active: 5.01 µM
27 | Cc1ccc(NC2=NCCC2)cc1Cl | inconclusive: 5.62 µM [activator, single point]
28 | COC(=O)c1ccc(-c2nc3cc(Cl)c(N)cc3s2)cc1 | active: 5.01 µM
29 | Cc1cccc(S(=O)(=O)Nc2ccc(C)c3c2OC(C)(C)C3)c1 | inactive
30 | COc1cc(C(=O)Nc2ccc(N(C)C)cc2)cc(OC)c1OC | inconclusive: 12.6 µM [activator, partial curve, poor fit]
31 | CC1(C)CC(=O)C2=C(C1)Nc1[nH]c(=S)[nH]c(=O)c1C2c1ccccc1 (configuration not stated) | inactive
32 | N=c1ccn(Cc2cccc(F)c2)cc1 | inconclusive: 1.26 µM [activator, partial curve, poor fit]
33 | COc1ccccc1-c1noc(CCC(=O)Nc2cccc(C)c2)n1 | inactive
34 | COc1ccc(Nc2ccccc2N)cc1 | inconclusive: 25.1 µM [inhibitor, single point]
35 | CC(C)OC(=O)c1c2nc3ccccc3nc2n2c1[nH]c(=O)c1ccccc12 | inactive
36 | C=CCNC(=S)NCC | inactive
37 | NC(=O)c1c(NC(=O)c2ccccc2F)sc2c1CCCC2 | inconclusive: 31.6 µM [activator, partial curve]
38 | CCn1c(=N)n(CC(=O)c2ccc(OC)cc2)c2ccccc21 | inconclusive: 10 µM [inhibitor, partial curve]
39 | C=CCn1c(-c2cc(-c3ccccc3)sc2N)n[nH]c1=S | active: 2.24 µM
40 | O=C(Nc1ccc(S(=O)(=O)Nc2ncccn2)cc1)c1cccnc1 | inconclusive: 20 µM [inhibitor, single point]
41 | COc1cc2c(cc1OC)CN(C(=S)Nc1ccc(Cl)cc1)CC2 | inconclusive: 20 µM [inhibitor, single point]
42 | CCN(CC)CCCNc1cc2n(c(=O)n1)CCc1cc(OC)c(OC)cc1-2 | inactive
43 | CCOc1cc(CNCCc2c[nH]c3ccccc23)cc(Cl)c1OCC(N)=O | inconclusive: 35.5 µM [inhibitor, single point]
44 | COc1ccc(/C=C\C(=O)c2c(O)ccc3c(C)cc(=O)oc23)cc1OC | active: 12.6 µM
45 | O=C(c1ccc(S(=O)(=O)Nc2ccccc2)cc1)N1CCCC(C(F)(F)F)C1 (configuration not stated) | inconclusive: 12.6 µM [activator, single point]
46 | COc1ccc(NC(=O)CC2Oc3ccccc3NC2=O)cc1 (configuration not stated) | inconclusive: 2.51 µM [inhibitor, partial curve]
47 | COCCNC(=O)C(=O)c1cc(C)n(-c2ccc([N+](=O)[O-])cc2)c1C | inconclusive: 15.8 µM [activator, single point]

Reformatted as labelled records: 2 of the compounds above
O=C(c1ccc(S(=O)(=O)Nc2ccccc2)cc1)N1CCCC(C(F)(F)F)C1 (configuration not stated)
  Potency: inconclusive: 12.6 µM [activator, single point]
COc1ccc(NC(=O)CC2Oc3ccccc3NC2=O)cc1 (configuration not stated)
  Potency: inconclusive: 2.51 µM [inhibitor, partial curve]
